According to the supplement of paper PMC12819154, “High-throughput peptide-centric local stability assay extends protein–ligand identification to membrane proteins, tissues and bacteria” (Nature Structural & Molecular Biology, 2025):
The other results are listed elsewhere or left out. Most values lie at the level of the controls, where differences are scatter.

Protein sequences, listed by entry. Tags and fused reporters are not part of them. Lines headed by an entry give the natural chain unless they say otherwise; changes in a name come on top.
UniProt Q9NQW6: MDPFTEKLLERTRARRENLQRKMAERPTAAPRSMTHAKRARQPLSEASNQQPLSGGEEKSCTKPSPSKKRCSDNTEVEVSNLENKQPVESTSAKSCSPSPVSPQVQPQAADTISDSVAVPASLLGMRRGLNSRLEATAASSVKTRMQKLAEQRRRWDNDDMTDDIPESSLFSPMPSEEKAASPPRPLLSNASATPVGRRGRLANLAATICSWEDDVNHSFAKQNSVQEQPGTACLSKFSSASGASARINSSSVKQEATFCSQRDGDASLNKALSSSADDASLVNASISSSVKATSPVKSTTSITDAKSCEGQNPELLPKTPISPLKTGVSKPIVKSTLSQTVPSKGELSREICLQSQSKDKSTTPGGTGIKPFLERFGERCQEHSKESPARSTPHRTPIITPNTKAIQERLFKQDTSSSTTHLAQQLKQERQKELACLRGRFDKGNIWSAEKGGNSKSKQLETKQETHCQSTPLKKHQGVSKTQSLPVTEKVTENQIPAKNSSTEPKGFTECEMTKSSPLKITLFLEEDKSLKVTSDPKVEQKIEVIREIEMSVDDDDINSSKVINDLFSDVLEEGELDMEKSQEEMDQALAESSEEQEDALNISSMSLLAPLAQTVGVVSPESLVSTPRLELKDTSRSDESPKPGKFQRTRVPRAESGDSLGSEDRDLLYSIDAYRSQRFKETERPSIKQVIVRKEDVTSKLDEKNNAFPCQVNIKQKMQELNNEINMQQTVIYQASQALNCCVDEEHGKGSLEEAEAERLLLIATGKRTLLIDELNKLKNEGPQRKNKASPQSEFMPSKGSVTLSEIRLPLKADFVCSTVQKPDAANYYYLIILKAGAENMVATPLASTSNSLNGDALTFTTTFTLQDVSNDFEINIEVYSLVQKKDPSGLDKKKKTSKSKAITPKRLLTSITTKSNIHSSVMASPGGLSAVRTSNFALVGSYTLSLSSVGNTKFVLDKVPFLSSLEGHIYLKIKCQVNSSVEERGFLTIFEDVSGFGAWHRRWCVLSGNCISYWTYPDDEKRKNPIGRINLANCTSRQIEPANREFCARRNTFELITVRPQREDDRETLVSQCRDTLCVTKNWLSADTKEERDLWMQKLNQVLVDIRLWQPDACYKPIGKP
UniProt Q9NX24: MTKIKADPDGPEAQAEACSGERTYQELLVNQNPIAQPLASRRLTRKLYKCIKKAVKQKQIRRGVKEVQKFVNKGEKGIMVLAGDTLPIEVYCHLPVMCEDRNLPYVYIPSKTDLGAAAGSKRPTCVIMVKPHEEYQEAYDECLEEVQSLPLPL
UniProt Q9NQZ2: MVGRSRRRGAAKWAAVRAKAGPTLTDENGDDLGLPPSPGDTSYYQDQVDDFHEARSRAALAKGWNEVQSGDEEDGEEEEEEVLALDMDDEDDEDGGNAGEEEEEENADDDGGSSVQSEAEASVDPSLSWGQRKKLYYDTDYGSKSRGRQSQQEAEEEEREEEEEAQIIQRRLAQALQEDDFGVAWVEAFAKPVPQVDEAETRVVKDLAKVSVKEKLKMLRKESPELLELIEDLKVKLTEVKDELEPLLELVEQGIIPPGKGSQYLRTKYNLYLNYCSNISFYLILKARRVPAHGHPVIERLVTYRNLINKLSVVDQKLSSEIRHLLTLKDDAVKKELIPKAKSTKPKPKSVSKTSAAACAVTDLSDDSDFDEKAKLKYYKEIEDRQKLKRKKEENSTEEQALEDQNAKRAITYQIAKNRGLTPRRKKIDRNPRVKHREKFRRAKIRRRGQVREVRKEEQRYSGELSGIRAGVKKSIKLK
UniProt Q9NWS6: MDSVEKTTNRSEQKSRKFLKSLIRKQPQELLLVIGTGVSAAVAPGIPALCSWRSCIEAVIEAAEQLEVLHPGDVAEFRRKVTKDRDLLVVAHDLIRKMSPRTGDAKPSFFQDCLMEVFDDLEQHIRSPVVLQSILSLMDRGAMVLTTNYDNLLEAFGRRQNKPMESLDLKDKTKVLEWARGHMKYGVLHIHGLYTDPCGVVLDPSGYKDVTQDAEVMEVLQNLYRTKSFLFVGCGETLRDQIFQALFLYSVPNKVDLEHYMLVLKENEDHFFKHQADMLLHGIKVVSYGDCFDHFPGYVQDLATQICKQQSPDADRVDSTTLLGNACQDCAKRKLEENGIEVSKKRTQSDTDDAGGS
UniProt Q9NX08, whole entry: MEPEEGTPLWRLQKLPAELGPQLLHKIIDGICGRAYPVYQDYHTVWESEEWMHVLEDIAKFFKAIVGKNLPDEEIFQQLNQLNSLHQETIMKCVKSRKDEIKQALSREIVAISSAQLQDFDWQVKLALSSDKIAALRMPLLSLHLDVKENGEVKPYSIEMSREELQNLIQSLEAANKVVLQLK
UniProt Q9NQP4, whole entry: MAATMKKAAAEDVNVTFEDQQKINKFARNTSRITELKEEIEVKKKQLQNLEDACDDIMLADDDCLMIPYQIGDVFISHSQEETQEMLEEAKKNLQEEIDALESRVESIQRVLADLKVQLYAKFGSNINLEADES
UniProt Q9NXZ1: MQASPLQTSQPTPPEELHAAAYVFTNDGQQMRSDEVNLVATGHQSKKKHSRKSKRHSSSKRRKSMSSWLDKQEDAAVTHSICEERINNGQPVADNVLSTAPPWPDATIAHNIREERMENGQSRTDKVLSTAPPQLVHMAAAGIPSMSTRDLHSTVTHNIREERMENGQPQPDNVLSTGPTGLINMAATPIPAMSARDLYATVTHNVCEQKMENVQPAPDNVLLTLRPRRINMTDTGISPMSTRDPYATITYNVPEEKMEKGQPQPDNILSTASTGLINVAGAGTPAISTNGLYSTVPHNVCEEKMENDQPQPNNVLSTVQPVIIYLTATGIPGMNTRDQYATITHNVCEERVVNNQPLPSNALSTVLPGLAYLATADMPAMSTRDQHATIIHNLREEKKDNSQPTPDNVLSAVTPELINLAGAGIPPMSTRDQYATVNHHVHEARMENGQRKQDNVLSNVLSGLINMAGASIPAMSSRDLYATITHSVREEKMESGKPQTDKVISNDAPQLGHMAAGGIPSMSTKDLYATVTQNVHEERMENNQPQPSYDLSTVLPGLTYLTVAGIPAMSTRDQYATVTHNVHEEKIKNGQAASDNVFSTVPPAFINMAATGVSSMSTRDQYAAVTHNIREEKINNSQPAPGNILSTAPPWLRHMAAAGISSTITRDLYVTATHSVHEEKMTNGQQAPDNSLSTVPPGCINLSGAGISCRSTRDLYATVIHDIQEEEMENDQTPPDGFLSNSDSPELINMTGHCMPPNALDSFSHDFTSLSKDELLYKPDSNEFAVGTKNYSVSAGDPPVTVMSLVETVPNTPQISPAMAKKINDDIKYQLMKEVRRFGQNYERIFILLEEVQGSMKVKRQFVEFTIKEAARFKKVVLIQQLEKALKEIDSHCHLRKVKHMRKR
UniProt Q9NQZ6: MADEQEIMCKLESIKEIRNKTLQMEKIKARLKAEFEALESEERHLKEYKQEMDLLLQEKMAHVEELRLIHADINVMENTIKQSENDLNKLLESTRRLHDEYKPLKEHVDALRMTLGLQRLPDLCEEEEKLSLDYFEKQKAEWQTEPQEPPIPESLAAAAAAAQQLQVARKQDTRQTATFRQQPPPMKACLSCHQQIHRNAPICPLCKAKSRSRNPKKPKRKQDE
UniProt Q9NT62, whole entry: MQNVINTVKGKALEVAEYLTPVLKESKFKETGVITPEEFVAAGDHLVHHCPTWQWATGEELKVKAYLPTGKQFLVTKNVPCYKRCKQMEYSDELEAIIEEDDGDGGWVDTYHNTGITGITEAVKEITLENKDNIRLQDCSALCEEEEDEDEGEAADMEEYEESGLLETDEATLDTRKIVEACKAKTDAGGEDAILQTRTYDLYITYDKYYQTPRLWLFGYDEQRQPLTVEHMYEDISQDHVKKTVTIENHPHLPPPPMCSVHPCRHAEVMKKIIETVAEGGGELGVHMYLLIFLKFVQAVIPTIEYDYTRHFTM
UniProt Q9NVA2: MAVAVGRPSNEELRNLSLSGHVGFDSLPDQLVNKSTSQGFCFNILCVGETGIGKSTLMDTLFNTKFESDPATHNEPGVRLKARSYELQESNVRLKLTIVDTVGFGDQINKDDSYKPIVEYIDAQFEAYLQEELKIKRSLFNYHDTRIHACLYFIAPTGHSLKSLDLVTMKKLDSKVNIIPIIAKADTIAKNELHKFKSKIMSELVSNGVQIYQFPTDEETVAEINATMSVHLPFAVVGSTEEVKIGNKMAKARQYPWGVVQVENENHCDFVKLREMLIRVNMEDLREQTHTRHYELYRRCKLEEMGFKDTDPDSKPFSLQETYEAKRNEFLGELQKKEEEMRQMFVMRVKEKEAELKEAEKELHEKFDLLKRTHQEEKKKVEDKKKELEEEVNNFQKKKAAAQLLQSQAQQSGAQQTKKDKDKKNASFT
UniProt Q9NWD9: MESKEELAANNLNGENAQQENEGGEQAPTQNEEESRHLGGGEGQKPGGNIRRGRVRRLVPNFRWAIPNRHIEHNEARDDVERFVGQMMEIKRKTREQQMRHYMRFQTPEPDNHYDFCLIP
UniProt Q9NUS5: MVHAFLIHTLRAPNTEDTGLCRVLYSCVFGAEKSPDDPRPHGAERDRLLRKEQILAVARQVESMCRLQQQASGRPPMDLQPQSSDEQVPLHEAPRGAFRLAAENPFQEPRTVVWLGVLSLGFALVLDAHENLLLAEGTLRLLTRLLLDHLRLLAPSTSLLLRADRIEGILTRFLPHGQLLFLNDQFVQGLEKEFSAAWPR
UniProt Q9NVR0: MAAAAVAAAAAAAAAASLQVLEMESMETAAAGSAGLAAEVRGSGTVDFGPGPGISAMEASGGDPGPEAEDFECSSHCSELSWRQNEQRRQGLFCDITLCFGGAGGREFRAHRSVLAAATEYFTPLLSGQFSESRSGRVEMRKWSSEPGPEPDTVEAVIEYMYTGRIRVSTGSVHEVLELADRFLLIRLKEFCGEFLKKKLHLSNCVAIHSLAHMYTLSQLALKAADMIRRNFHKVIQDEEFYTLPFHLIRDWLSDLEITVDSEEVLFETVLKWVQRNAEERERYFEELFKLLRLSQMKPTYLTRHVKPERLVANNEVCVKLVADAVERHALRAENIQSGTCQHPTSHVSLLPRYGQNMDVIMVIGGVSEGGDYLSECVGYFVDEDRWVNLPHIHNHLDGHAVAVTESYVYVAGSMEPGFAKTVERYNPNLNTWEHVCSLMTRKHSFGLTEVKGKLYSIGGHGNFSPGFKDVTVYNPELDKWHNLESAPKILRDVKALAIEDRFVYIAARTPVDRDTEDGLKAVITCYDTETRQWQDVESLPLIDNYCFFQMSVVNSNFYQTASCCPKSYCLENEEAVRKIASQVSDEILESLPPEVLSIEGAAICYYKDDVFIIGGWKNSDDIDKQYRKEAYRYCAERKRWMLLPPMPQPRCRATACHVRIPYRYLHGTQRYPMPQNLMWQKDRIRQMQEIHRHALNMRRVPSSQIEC
UniProt Q9NRZ9: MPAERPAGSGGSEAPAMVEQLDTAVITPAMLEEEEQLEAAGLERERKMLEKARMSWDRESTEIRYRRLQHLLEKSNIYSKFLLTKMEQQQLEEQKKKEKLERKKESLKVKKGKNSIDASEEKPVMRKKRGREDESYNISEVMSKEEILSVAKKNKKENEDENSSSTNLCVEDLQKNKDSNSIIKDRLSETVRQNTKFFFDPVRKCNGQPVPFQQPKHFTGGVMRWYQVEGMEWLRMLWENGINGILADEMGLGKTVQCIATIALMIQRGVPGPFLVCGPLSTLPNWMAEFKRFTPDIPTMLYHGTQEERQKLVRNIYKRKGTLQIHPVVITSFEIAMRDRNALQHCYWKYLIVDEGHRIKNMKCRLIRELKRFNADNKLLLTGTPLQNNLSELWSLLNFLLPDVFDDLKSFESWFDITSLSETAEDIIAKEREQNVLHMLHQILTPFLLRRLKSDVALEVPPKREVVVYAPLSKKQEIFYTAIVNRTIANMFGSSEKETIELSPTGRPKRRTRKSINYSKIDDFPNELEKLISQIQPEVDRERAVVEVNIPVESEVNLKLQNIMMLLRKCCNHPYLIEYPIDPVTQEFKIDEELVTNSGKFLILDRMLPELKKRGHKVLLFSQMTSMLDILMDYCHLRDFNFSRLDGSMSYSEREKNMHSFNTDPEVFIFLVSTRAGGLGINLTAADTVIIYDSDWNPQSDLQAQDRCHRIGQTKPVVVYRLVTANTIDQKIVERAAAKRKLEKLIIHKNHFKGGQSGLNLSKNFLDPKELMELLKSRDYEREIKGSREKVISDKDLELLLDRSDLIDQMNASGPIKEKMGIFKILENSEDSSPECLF
UniProt Q9NXE8: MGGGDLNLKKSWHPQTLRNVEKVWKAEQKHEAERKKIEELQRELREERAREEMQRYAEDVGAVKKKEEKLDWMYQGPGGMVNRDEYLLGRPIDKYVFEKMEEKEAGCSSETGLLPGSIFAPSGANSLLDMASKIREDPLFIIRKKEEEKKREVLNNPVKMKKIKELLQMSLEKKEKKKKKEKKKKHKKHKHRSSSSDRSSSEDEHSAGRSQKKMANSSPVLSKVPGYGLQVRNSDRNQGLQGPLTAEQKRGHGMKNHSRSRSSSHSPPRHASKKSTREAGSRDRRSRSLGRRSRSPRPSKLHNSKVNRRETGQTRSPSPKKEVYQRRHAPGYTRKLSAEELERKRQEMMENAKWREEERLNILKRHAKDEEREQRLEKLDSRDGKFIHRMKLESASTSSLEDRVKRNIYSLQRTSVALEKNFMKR

These targets were tested with CN[C@@H]1C[C@H]2O[C@@](C)([C@@H]1OC)n1c3ccccc3c3c4c(c5c6ccccc6n2c5c31)C(=O)NC4 [staurosporine] (assay: log2 fold change of tryptic peptide abundance, ligand vs vehicle (limited proteolysis) (log2 ratio); higher = more trypsin-susceptible (destabilized)). Settings: ligand concentration: 20 uM; sample: K562 cleared lysate; digestion: 4 min, 22 C (HT-PELSA RT4min, Orbitrap Astral).

| Target | log2 fold change |
| --- | --- |
| UniProt Q9NS56 (peptide sequence: KIQEQDIINFR, peptide start residue: 249) | -0.342 |
| FBXL12 (peptide sequence: HVDLTLYTMRPK, peptide start residue: 46) (UniProt Q9NXK8) | 0.736 |
| GPATCH2 (peptide sequence: GGFAETGDHSR, peptide start residue: 45) (UniProt Q9NW75) | -0.839 |
| ANLN (peptide sequence: TGVSKPIVK, peptide start residue: 327) (UniProt Q9NQW6) | 0.304 |
| NHP2 (peptide sequence: ADPDGPEAQAEACSGER, peptide start residue: 6) (UniProt Q9NX24) | -0.196 |
| UTP3 (peptide sequence: VPAHGHPVIER, peptide start residue: 290) (UniProt Q9NQZ2) | 0.553 |
| TUBA8 (peptide sequence: NLDIERPTYTNLNR, peptide start residue: 216) (UniProt Q9NY65) | -0.0996 |
| FAM118A (peptide sequence: DRDLLVVAHDLIRK, peptide start residue: 84) (UniProt Q9NWS6) | 0.786 |
| NRBP2 (peptide sequence: HSLSDPNMR, peptide start residue: 272) (UniProt Q9NSY0) | 0.134 |
| PCMTD2 (peptide sequence: TGPSAWETKK, peptide start residue: 201) (UniProt Q9NV79) | -0.853 |
| UniProt Q9NYP9 (peptide sequence: CSDSSLLGKR, peptide start residue: 25) | 0.431 |
| COMMD8 (peptide sequence: MPLLSLHLDVK, peptide start residue: 138) (UniProt Q9NX08) | -0.0125 |
| KIF15 (peptide sequence: TAIIANVHPGSR, peptide start residue: 334) (UniProt Q9NS87) | 0.221 |
| PFDN4 (peptide sequence: ITELKEEIEVK, peptide start residue: 33) (UniProt Q9NQP4) | -0.25 |
| SAGE1 (peptide sequence: VVLIQQLEK, peptide start residue: 876) (UniProt Q9NXZ1) | 0.169 |
| ZC4H2 (peptide sequence: NAPICPLCK, peptide start residue: 199) (UniProt Q9NQZ6) | -0.249 |
| TEX10 (peptide sequence: LTSQQWR, peptide start residue: 218) (UniProt Q9NXF1) | 0.45 |
| ATG3 (peptide sequence: IVEACKAK, peptide start residue: 178) (UniProt Q9NT62) | 0.518 |
| UniProt Q9NVA2 (peptide sequence: IHACLYFIAPTGHSLK, peptide start residue: 147) | -0.425 |
| SERINC1 (peptide sequence: LTLTSDESTLIEDGGAR, peptide start residue: 344) (UniProt Q9NRX5) | -0.395 |
| BEX4 (peptide sequence: HLGGGEGQKPGGNIRR, peptide start residue: 37) (UniProt Q9NWD9) | 0.526 |
| UniProt Q9NUS5 (peptide sequence: LLAPSTSLLLR, peptide start residue: 152) | -0.376 |
| DNAJB12 (peptide sequence: YFGDTDMYHR, peptide start residue: 345) (UniProt Q9NXW2) | 0.798 |
| UniProt Q9NS37 (peptide sequence: AVLANETGLAR, peptide start residue: 269) | -0.348 |
| KLHL11 (peptide sequence: RVPSSQIEC, peptide start residue: 700) (UniProt Q9NVR0) | 0.301 |
| HELLS (peptide sequence: EEILSVAKK, peptide start residue: 145) (UniProt Q9NRZ9) | 0.795 |
| UniProt Q9NXE8 (peptide sequence: YAEDVGAVK, peptide start residue: 56) | 0.281 |

2 records drawn at random from those above, as already listed:

| Target | log2 fold change |
| --- | --- |
| UniProt Q9NYP9 (peptide sequence: CSDSSLLGKR, peptide start residue: 25) | 0.431 |
| DNAJB12 (peptide sequence: YFGDTDMYHR, peptide start residue: 345) (UniProt Q9NXW2) | 0.798 |
